PubChem BioAssay AID540276 (National Center for Advancing Translational Sciences (NCATS), 2011)
Hit rate of the full screen: of about 300,000 compounds, about 5,400 (1.8%) were called active. The shares of active, inactive and inconclusive entries below differ from those in the screen. Calls come from the whole dose curve; tested in HEK293 cells. Potencies of inconclusive entries are doubtful fits and often do not repeat.

Test: qHTS for inhibitors of binding or entry into cells for Marburg Virus
Conditions: Marburg virus pseudotyped entry inhibition, cell reporter; activity change, negative = inhibition: at 37.8 µM (top of the series) unless noted
% is set by controls: 0 for no effect and ±100 for the full control effect; potency is the fitted concentration of half-maximal effect.

Structure (SMILES) | Potency | activity change, negative = inhibition
CCOC(=O)C1C(c2ccccc2)C(C(=O)OCC)S(=O)(=O)C(CCN(CC)CC)S1(=O)=O (centres undefined) | inconclusive: 7.3 µM [inhibitor, partial curve] | 
CC[n+]1c(C)sc2c(C)cc(C)cc21 |  | inactive: -6.55% [at 46.1 µM]
CCCCN1C2CCCC1CC(NC(=O)c1ccc(OC)c(OC)c1)C2 (centres undefined) | inconclusive: 0.92 µM [inhibitor, partial curve, poor fit] | 
NC(N)=Nc1nc(-c2ccccc2)c2ccccc2n1 | inconclusive: 12.6 µM [inhibitor, single point] | 
Cc1cc(C)cc(N(CCC#N)C(=O)CSC2=Nc3ccccc3C3CC=NN23)c1 (centres undefined) | inconclusive: 3.98 µM [inhibitor, partial curve, poor fit] | 
Cn1nc(C(F)(F)F)c2cc(NC(=O)OCc3ccc(F)cc3)sc21 |  | inactive: -3.51%
Cc1ccc(S(=O)(=O)N2CCN(C(=O)C3CC3C)CC2)c(C)c1 (centres undefined) |  | inactive: -15.6%
COc1ccc2oc(=O)c(C(=O)Oc3ccc(NC(C)=O)cc3)cc2c1 | inconclusive: 32.6 µM [activator, partial curve, poor fit] | 
Cc1ccc(-c2cc3nc(-c4ccc(Br)cc4)cc(N)n3n2)cc1 |  | inactive: 10%
C=CCn1c(=O)c(C(=O)NCCc2ccccc2)c(O)c2ccccc21 |  | inactive: -18.9%
c1ccc(C(Cc2nc(-c3ccccn3)no2)c2ccccc2)cc1 | inconclusive: 25.1 µM [inhibitor, single point] | 
O=S(=O)(NC1CC1)c1ccc(Cl)cc1F |  | inactive: 16.8% [at 46.1 µM]
CC1CC1C(=O)OCC(=O)NNC(=O)COc1ccc(Br)cc1 (centres undefined) |  | inactive: 21.9%
CC(C)Oc1ccc(CCN=C(N)N=C(N)N)cc1Cl |  | inactive: -27.1%
CCCCc1noc(-c2c(-c3ccccc3Cl)noc2C)n1 |  | inactive: 2.13% [at 46.1 µM]
Cc1ccc2c(c1)CNc1ccccc1O2 |  | inactive: 14.6%
COc1ccc(C2CC(=O)OC3=C2C(=O)CC(C)(C)C3)c(OC)c1 (centres undefined) | inconclusive: 1.12 µM [inhibitor, partial curve, poor fit] | 
CC(C)(C)OC(=O)N1CCCN(C(=O)c2ccc(Cl)cc2)CC1 | inconclusive: 1.58 µM [inhibitor, partial curve, poor fit] | 
COc1cccc(-c2noc(COc3ccccc3Cl)n2)c1 |  | inactive: 12.4% [at 46.1 µM]
CN(C)C(=O)Oc1cccc(-c2cn3cc(Cl)ccc3n2)c1 |  | inactive: -14.7%
CN(C)c1ccc(/C=C(/C(=O)c2ccc(Cl)cc2Cl)n2cncn2)cc1 | inconclusive: 7.94 µM [inhibitor, single point] | 
CCn1c(=O)c2cc(C(=O)NCCCN3CCC(C)CC3)sc2c2ccccc21 | inconclusive: 17.8 µM [inhibitor, partial curve, poor fit] | 
O=C(CCNS(=O)(=O)c1ccc(Br)s1)N1CCN(c2ccccc2)CC1 | inconclusive: 1 µM [inhibitor, full curve] | 

Structure (SMILES) | Potency | activity change, negative = inhibition
COCC(=O)N(Cc1cc2cc(C)ccc2[nH]c1=O)c1cccc(C)c1C | inconclusive: 2.51 µM [inhibitor, partial curve, poor fit] | 
Cc1ccccc1N=Nc1c(O)[nH]c2ccccc12 | inconclusive: 5.62 µM [activator, single point] | 
Cc1ccc(N2C(=O)c3ccccc3C2(O)c2ncc[nH]2)cc1 (centres undefined) | inconclusive: 15.8 µM [activator, partial curve, poor fit] | 
Cc1ccc(C)c(NC(=O)CSc2nc3c(oc4ccccc43)c(=O)n2-c2ccccc2)c1 | inconclusive: 5.62 µM [inhibitor, single point] | 
CC(C)c1nnc(NC(=O)c2cc3ccccc3o2)s1 |  | inactive: 41.6% [at 46.1 µM]
COc1cc2c(cc1OC)C(c1ccc(-c3ccc(Cl)cc3Cl)o1)=NCC2 | active: 6.31 µM | 
C=C(C)Cn1c(SCC(=O)N/N=C/c2c(O)ccc3ccccc23)nc2ccccc2c1=O | inconclusive: 22.4 µM [inhibitor, partial curve, poor fit] | 
O=C(N/N=C/c1ccsc1)c1ccc2c(c1)OCO2 |  | inactive: -25.5%
COc1cc(/C=N/NC(=O)c2cc(-c3ccccc3OC(C)C)nc3ccccc23)ccc1O | active: 4.61 µM | 
C/C(Cc1ccccc1)=N\NC(=O)CNC(=O)c1ccc(Cl)cc1 |  | inactive: 21.5% [at 46.1 µM]
CCCCCc1nc2sc3c(c2c(=O)n1NC(=O)c1ccc([N+](=O)[O-])cc1)CC(C)(C)OC3 | inconclusive: 35.5 µM [inhibitor, single point] | 
CC(/C=N/NC(=O)c1cc(C(C)C)[nH]n1)=C\c1ccccc1 | inconclusive: 16.4 µM [inhibitor, partial curve] | 
CCCOc1ccc(C(F)(F)F)cc1NS(=O)(=O)c1ccc(Cl)nc1 |  | inactive: -17.7% [at 46.1 µM]
Cc1ccc(/C=C/C(=O)Nc2cc(S(=O)(=O)N3CCCCCC3)ccc2OCC(F)(F)F)o1 | inconclusive: 20 µM [inhibitor, single point] | 
Cn1c(/C(C#N)=C/c2ccc(-c3ccc(S(N)(=O)=O)cc3)o2)nc2ccccc21 | inconclusive: 13 µM [inhibitor, partial curve, poor fit] | 
O=C(Oc1ccc(Cl)cc1)c1cc(-c2ccc3c(c2)OCCO3)on1 | inconclusive: 4.47 µM [activator, single point] | 
COc1ccc2c(c1)C=C(CN1CCC(CO)(CCc3ccccc3)CC1)CO2 | inconclusive: 3.98 µM [inhibitor, full curve] | 
Cc1cccc(C)c1NC(=S)N(CCCN1CCOCC1)Cc1cccnc1 |  | inconclusive: 17.2% [activator] [at 46.1 µM]
O=C(N/N=C/c1coc2ccccc2c1=O)c1ccncc1 | inconclusive: 1.58 µM [activator, partial curve, poor fit] | 
Cc1cc(NC(=O)CSc2c[nH]c3ccccc23)no1 | inconclusive: 4.47 µM [inhibitor, full curve] | 
O=C(CN(c1cccc(C(F)(F)F)c1)S(=O)(=O)c1ccc(Cl)c([N+](=O)[O-])c1)NCc1ccccc1Cl | inconclusive: 7.08 µM [inhibitor, partial curve] | 
CN(C)c1nc2c(N)ncnc2n1C1OC(CO)C(O)C1O (centres undefined) |  | inactive: 16.9%
CCN(C(=O)COC(=O)/C=C/c1cnc2ccccc2n1)C1CCS(=O)(=O)C1 (centres undefined) | inconclusive: 15.8 µM [inhibitor, single point] | 

Structure (SMILES) | Potency | activity change, negative = inhibition
Cc1ccc(N/C=C/C(=O)C(C)(C)C)c(O)c1 |  | inactive: -17.5%
COc1ccccc1NC(=O)C(C)OC(=O)Cn1cnc2c1c(=O)n(C)c(=O)n2C (centres undefined) | inconclusive: 11.2 µM [activator, partial curve, poor fit] | 
CCCCn1c(=NC(=O)c2cc3ccccc3o2)c(C(=O)OCC)cc2c(=O)n3ccccc3nc21 | inconclusive: 35.5 µM [activator, single point] | 
CCN(CC)CCCN(C(=O)c1ccco1)c1nc(-c2ccc(C)cc2)cs1 | active: 8.91 µM | 
CCC1=NN(C(=O)C(=O)Nc2ccc(Br)cc2)C(O)(C(F)(F)F)C1 (centres undefined) | inconclusive: 35.5 µM [inhibitor, single point] | 
COCCNC(=O)CSC1=N/C(=C/c2ccc(Cl)c(Cl)c2)C(=O)N1c1ccccc1F | inconclusive: 10 µM [inhibitor, partial curve] | 
O=C(Nc1cccnc1)OC1CCCC1 | inconclusive: 12.6 µM [activator, single point] | 
Cc1ccc(CNC(=O)CCCn2c(=O)[nH]c3ccc(Br)cc3c2=O)cc1 |  | inactive: 12.2% [at 46.1 µM]
CN(Cc1ccccc1)S(=O)(=O)c1ccc(Cl)c(C(=O)O)c1 |  | inactive: 2.21% [at 46.1 µM]
CC(C)c1cc(C(=O)Nc2sc3c(c2C#N)CCC3)no1 | inconclusive: 29.1 µM [inhibitor, single point] | 
COc1ccc(OC)c(/C=N/NC(=O)CC(=O)NC2CCCCC2)c1 | inconclusive: 3.16 µM [activator, single point] | 
COc1ccc(OCC(=O)Nc2ccccc2C(=O)N2CCOCC2)cc1 | inconclusive: 11.2 µM [inhibitor, single point] | 
Cc1ccc(-n2c(=O)c3c(cnn3C)n(CC(=O)Nc3ccccc3C)c2=O)cc1 | inconclusive: 12.6 µM [activator, single point] | 
Cc1cc([N+](=O)[O-])ccc1-c1ccc(/C=N/NC(=O)Cc2ccccc2)o1 | inconclusive: 11.2 µM [inhibitor, partial curve, poor fit] | 
CC(=O)Nc1cccc(C(=O)OCC(=O)c2ccc3c(c2)OCO3)c1 | inconclusive: 3.55 µM [inhibitor, full curve] | 
CC1(C)CC(=O)C(C(C#Cc2ccccc2)C2=C(O)CC(C)(C)CC2=O)=C(O)C1 | inconclusive: 29.1 µM [inhibitor, single point] | 
CSc1ncc(Br)c(N2CC2)n1 | inconclusive: 35.5 µM [inhibitor, single point] | 
Cc1nn2c(C)c(C(=O)Nc3ccccc3)cnc2c1-c1ccccc1 | inconclusive: 17.8 µM [inhibitor, partial curve, poor fit] | 
COc1ccc(CCn2c(C)cc(C(=O)CSc3nnc(N)s3)c2C)cc1 | inconclusive: 16.4 µM [inhibitor, single point] | 
CCc1ccc(N2C(=O)CN(Cc3cc(OC)c(OC)c(OC)c3)C2=S)cc1 | inconclusive: 18.4 µM [inhibitor, partial curve] | 
Clc1ccc(-c2ncc3ccccn23)cc1 | inconclusive: 20 µM [activator, single point] | 
NS(=O)(=O)c1ccc(N2CCN(CCOc3ccc(Cl)cc3)CC2)nc1 | inconclusive: 13 µM [inhibitor, partial curve, poor fit] | 
CN1C(=O)C2(N=c3ccccc3=N2)c2ccccc21 | inconclusive: 12.6 µM [activator, single point] | 

Given comma-delimited: 5 of the compounds above
Structure (SMILES),Potency,"activity change, negative = inhibition"
CCC1=NN(C(=O)C(=O)Nc2ccc(Br)cc2)C(O)(C(F)(F)F)C1 (centres undefined),"inconclusive: 35.5 µM [inhibitor, single point]",
Cc1ccc(CNC(=O)CCCn2c(=O)[nH]c3ccc(Br)cc3c2=O)cc1,,inactive: 12.2% [at 46.1 µM]
CN(Cc1ccccc1)S(=O)(=O)c1ccc(Cl)c(C(=O)O)c1,,inactive: 2.21% [at 46.1 µM]
Cc1ccc(-n2c(=O)c3c(cnn3C)n(CC(=O)Nc3ccccc3C)c2=O)cc1,"inconclusive: 12.6 µM [activator, single point]",
Clc1ccc(-c2ncc3ccccn23)cc1,"inconclusive: 20 µM [activator, single point]",
